# The list shows a part of the results. Hit calls seldom repeat between salt and free forms of one compound.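 In K562 cells expressing nanoluciferase-fused kinases, luminescence was recorded at 4 h intervals between 2 and 18 h, normalized as percent of control with DMSO at 100% and a positive control at 0%. A significant (2 sigma) signal drop marks a time point as decreased. The authors' rule for a hit is not shown and takes in more than the number of time points.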
# Chains of the proteins cited; added tags and fusions are not shown.
# UniProt P21802, whole entry, looked up: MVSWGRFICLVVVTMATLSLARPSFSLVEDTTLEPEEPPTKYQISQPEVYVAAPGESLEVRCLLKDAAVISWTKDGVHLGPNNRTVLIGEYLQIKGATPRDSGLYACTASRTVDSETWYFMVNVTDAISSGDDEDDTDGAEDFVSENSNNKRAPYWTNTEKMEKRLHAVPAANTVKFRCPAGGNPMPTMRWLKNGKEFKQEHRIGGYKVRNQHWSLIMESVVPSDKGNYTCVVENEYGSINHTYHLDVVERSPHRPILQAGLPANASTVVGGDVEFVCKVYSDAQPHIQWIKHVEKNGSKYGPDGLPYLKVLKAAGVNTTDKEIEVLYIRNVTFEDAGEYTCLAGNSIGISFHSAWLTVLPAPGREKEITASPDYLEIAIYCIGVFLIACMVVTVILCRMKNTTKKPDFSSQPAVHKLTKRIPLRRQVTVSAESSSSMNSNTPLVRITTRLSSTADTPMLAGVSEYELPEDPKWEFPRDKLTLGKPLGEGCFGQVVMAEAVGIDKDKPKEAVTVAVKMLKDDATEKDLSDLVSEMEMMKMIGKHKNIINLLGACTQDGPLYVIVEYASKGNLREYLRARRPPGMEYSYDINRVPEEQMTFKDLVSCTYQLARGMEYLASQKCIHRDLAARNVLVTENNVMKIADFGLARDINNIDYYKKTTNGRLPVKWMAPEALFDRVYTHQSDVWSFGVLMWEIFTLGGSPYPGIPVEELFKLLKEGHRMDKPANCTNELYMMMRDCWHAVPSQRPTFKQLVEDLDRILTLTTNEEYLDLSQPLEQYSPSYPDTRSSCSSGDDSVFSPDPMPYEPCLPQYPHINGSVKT
# UniProt P22607, whole entry, looked up: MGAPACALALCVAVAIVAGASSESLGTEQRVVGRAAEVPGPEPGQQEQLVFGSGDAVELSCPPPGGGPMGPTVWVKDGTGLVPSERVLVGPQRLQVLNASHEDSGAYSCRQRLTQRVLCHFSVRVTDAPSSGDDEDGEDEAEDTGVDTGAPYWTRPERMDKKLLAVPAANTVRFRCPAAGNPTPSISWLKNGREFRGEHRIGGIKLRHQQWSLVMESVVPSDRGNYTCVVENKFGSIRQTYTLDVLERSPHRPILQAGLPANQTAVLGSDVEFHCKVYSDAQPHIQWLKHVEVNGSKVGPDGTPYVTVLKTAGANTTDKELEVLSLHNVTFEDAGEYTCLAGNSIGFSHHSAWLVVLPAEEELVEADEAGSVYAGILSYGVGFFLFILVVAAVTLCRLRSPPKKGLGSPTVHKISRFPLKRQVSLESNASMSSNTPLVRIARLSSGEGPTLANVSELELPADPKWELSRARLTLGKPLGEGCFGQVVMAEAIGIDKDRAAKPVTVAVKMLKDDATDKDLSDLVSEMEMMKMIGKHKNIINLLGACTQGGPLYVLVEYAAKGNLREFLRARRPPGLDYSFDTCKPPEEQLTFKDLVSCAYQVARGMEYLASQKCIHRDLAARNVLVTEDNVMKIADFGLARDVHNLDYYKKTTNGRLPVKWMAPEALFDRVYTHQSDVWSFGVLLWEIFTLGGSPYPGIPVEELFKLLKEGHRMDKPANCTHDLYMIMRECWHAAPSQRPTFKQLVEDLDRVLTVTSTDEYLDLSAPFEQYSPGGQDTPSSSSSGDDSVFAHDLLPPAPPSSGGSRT
# Target: FGFR2 (UniProt P21802)
# Assay: kinase-Nluc reporter destabilization hit call (1 = scored as downregulated) (binary); higher = compound decreases kinase abundance
# Conditions: K562; 2-18 h
row,Structure (SMILES),kinase-Nluc reporter destabilization hit call
1,Cc1ccccc1-n1c(Cn2cnc3c(N)ncnc32)nc2cccc(C)c2c1=O (10 µM),inactive: 0
2,C=C[C@H]1CN2CC[C@]3(C(=O)Nc4ccccc43)[C@@H]2C[C@@H]1/C(=C\OC)C(=O)OC [Corynoxeine] (2 µM),inactive: 0
3,O=C1C=CC[C@@H]2[C@H]3CCCN4CCC[C@@H](CN12)[C@@H]34 [Sophocarpine (monohydrate)] (2.5 µM),inactive: 0
4,O=c1ccc2cc(O[C@@H]3O[C@H](CO)[C@@H](O)[C@H](O)[C@H]3O)c(O)cc2o1 [Esculin] (10 µM),inactive: 0
5,O=c1[nH]c2ccccc2n1C1CCN(CCCC(c2ccc(F)cc2)c2ccc(F)cc2)CC1 [Pimozide] (2.5 µM),inactive: 0
6,C[C@@H]1CC[C@H]2[C@@H](C)C(=O)O[C@@H]3O[C@@]4(C)CC[C@@H]1[C@]32OO4 [Artemisinin] (10 µM),inactive: 0
7,COc1ccc2c(c1OC)C(OC)N(C)c1c-2ccc2cc3c(cc12)OCO3 (stereo not drawn) [Angoline] (10 µM),inactive: 0
8,C[C@H]1CC[C@]2(NC1)O[C@H]1C[C@H]3[C@@H]4CC[C@H]5C[C@@H](O[C@@H]6O[C@H](CO)[C@H](O[C@@H]7O[C@H](CO)[C@@H](O)[C@H](O[C@@H]8OC[C@@H](O)[C@H](O)[C@H]8O)[C@H]7O[C@@H]7O[C@H](CO)[C@@H](O)[C@H](O)[C@H]7O)[C@H](O)[C@H]6O)CC[C@]5(C)[C@H]4CC[C@]3(C)[C@H]1[C@@H]2C [Tomatine] (2.5 µM),inactive: 0
9,CN(C)C(=O)c1ccc(Cn2c(C(=O)O)cc3c(Br)cc(Sc4ccc(Cl)c(Cl)c4)cc32)cc1 [Rheb inhibitor NR1] (10 µM),inactive: 0
10,COc1ccc(/C=C/c2cc(OC)c(OC)c(OC)c2)cc1 (2.5 µM),inactive: 0
11,C/C(O)=C(\C#N)C(=O)Nc1cc(Br)ccc1Br (10 µM),inactive: 0
12,Cc1n[nH]cc1-c1cc2nc([C@@H]3CC4CCN3CC4)[nH]c(=O)c2s1 [Simurosertib] (2.5 µM),inactive: 0
13,O=c1[nH]c2ccccc2n1C1CCN(Cc2ccc(-c3[nH]c4cc5ncnc5cc4nc3-c3ccccc3)cc2)CC1 [AKT inhibitor VIII] (2.5 µM),inactive: 0
14,CCOC(=O)c1c(/C(C#N)=C\N)c2ccc(Cl)c(Cl)c2n1C (10 µM),inactive: 0
15,O=C(N[C@@H](COc1ccc2[nH]c(=O)[nH]c2c1)c1ccccc1)c1cccn(Cc2ccc(F)c(F)c2)c1=O (2.5 µM),inactive: 0
16,CC1=C[C@]23C(=O)[C@@H](C=C(CO)[C@@H](O)[C@]2(O)[C@H]1O)[C@H]1[C@@H](C[C@H]3C)C1(C)C [Ingenol] (10 µM),inactive: 0
17,N#CC(C#N)=NNc1cccc(Cl)c1 (2.5 µM),inactive: 0
18,CC(=O)c1c(O)c(C)c(O)c(Cc2c(O)c3c(c(C(=O)/C=C/c4ccccc4)c2O)OC(C)(C)C=C3)c1O [Rottlerin] (2 µM),inactive: 0
19,CCCS(=O)(=O)Nc1ccc(F)c(-n2cc(-c3cncnc3)c3nc(N(C)C4CCN(CC)CC4)ccc32)c1F (2 µM),inactive: 0
20,O=[N+]([O-])/C=C/c1ccc2c(c1)OCO2 (2.5 µM),inactive: 0
21,CC(=O)O[C@H]1[C@H]2[C@@H](OC(=O)Cc3ccccc3)[C@@H](C)C[C@]2(OC(C)=O)C(=O)/C(C)=C/[C@@H]2[C@H](CC[C@@]13CO3)C2(C)C [Euphorbiasteroid] (10 µM),inactive: 0
22,Cc1[nH]ncc1-c1cc2nc([C@H]3CC4CCN3CC4)[nH]c(=O)c2s1 [(R)-Simurosertib] (10 µM),inactive: 0
23,N#CC(C#N)=Cc1ccc(O)c(O)c1 [Tyrphostin 23] (10 µM),inactive: 0
24,CC1C(=O)OC2C(O)C34C5OC(=O)C3(OC3OC(=O)C(O)C34C(C(C)(C)C)C5O)C12O (stereo not drawn) [Ginkgolide C] (10 µM),inactive: 0
25,COc1ccc2c(c1)/C(=C/c1cnc[nH]1)C(=O)N2 (2.5 µM),inactive: 0
26,C[S+]([O-])/C=C/CCN=C=S (stereo not drawn) [Sulforaphene] (10 µM),inactive: 0
27,N#CC(C#N)=Cc1ccc([N+](=O)[O-])c(O)c1 (10 µM),inactive: 0
28,Cn1cc(C2=C(c3cn(C4CCN(Cc5ccccn5)CC4)c4ccccc34)C(=O)NC2=O)c2ccccc21 [Enzastaurin] (10 µM),inactive: 0
29,O=C(/C=C/c1ccccc1)OC[C@H]1O[C@@H](O[C@@H]2OC=C[C@H]3[C@H](O)[C@@H]4O[C@]4(CO)[C@@H]23)[C@H](O)[C@@H](O)[C@@H]1O [Picroside I] (10 µM),inactive: 0

# Target: FGFR3 (UniProt P22607)
# Assay: as above
# Conditions: K562; 2-18 h
row,Structure (SMILES),kinase-Nluc reporter destabilization hit call
1,Cc1ccccc1-n1c(Cn2cnc3c(N)ncnc32)nc2cccc(C)c2c1=O (10 µM),inactive: 0
2,C=C[C@H]1CN2CC[C@]3(C(=O)Nc4ccccc43)[C@@H]2C[C@@H]1/C(=C\OC)C(=O)OC [Corynoxeine] (2 µM),inactive: 0
3,O=C1C=CC[C@@H]2[C@H]3CCCN4CCC[C@@H](CN12)[C@@H]34 [Sophocarpine (monohydrate)] (2.5 µM),inactive: 0
4,O=c1ccc2cc(O[C@@H]3O[C@H](CO)[C@@H](O)[C@H](O)[C@H]3O)c(O)cc2o1 [Esculin] (10 µM),inactive: 0
5,O=c1[nH]c2ccccc2n1C1CCN(CCCC(c2ccc(F)cc2)c2ccc(F)cc2)CC1 [Pimozide] (2.5 µM),inactive: 0
6,C[C@@H]1CC[C@H]2[C@@H](C)C(=O)O[C@@H]3O[C@@]4(C)CC[C@@H]1[C@]32OO4 [Artemisinin] (10 µM),inactive: 0
7,COc1ccc2c(c1OC)C(OC)N(C)c1c-2ccc2cc3c(cc12)OCO3 (stereo not drawn) [Angoline] (10 µM),inactive: 0
8,C[C@H]1CC[C@]2(NC1)O[C@H]1C[C@H]3[C@@H]4CC[C@H]5C[C@@H](O[C@@H]6O[C@H](CO)[C@H](O[C@@H]7O[C@H](CO)[C@@H](O)[C@H](O[C@@H]8OC[C@@H](O)[C@H](O)[C@H]8O)[C@H]7O[C@@H]7O[C@H](CO)[C@@H](O)[C@H](O)[C@H]7O)[C@H](O)[C@H]6O)CC[C@]5(C)[C@H]4CC[C@]3(C)[C@H]1[C@@H]2C [Tomatine] (2.5 µM),inactive: 0
9,CN(C)C(=O)c1ccc(Cn2c(C(=O)O)cc3c(Br)cc(Sc4ccc(Cl)c(Cl)c4)cc32)cc1 [Rheb inhibitor NR1] (10 µM),inactive: 0
10,COc1ccc(/C=C/c2cc(OC)c(OC)c(OC)c2)cc1 (2.5 µM),inactive: 0
11,C/C(O)=C(\C#N)C(=O)Nc1cc(Br)ccc1Br (10 µM),inactive: 0
12,Cc1n[nH]cc1-c1cc2nc([C@@H]3CC4CCN3CC4)[nH]c(=O)c2s1 [Simurosertib] (2.5 µM),inactive: 0
13,O=c1[nH]c2ccccc2n1C1CCN(Cc2ccc(-c3[nH]c4cc5ncnc5cc4nc3-c3ccccc3)cc2)CC1 [AKT inhibitor VIII] (2.5 µM),inactive: 0
14,CCOC(=O)c1c(/C(C#N)=C\N)c2ccc(Cl)c(Cl)c2n1C (10 µM),inactive: 0
15,O=C(N[C@@H](COc1ccc2[nH]c(=O)[nH]c2c1)c1ccccc1)c1cccn(Cc2ccc(F)c(F)c2)c1=O (2.5 µM),inactive: 0
16,CC1=C[C@]23C(=O)[C@@H](C=C(CO)[C@@H](O)[C@]2(O)[C@H]1O)[C@H]1[C@@H](C[C@H]3C)C1(C)C [Ingenol] (10 µM),inactive: 0
17,N#CC(C#N)=NNc1cccc(Cl)c1 (2.5 µM),inactive: 0
18,CC(=O)c1c(O)c(C)c(O)c(Cc2c(O)c3c(c(C(=O)/C=C/c4ccccc4)c2O)OC(C)(C)C=C3)c1O [Rottlerin] (2 µM),inactive: 0
19,CCCS(=O)(=O)Nc1ccc(F)c(-n2cc(-c3cncnc3)c3nc(N(C)C4CCN(CC)CC4)ccc32)c1F (2 µM),inactive: 0
20,O=[N+]([O-])/C=C/c1ccc2c(c1)OCO2 (2.5 µM),inactive: 0
21,CC(=O)O[C@H]1[C@H]2[C@@H](OC(=O)Cc3ccccc3)[C@@H](C)C[C@]2(OC(C)=O)C(=O)/C(C)=C/[C@@H]2[C@H](CC[C@@]13CO3)C2(C)C [Euphorbiasteroid] (10 µM),inactive: 0
22,Cc1[nH]ncc1-c1cc2nc([C@H]3CC4CCN3CC4)[nH]c(=O)c2s1 [(R)-Simurosertib] (10 µM),inactive: 0
23,N#CC(C#N)=Cc1ccc(O)c(O)c1 [Tyrphostin 23] (10 µM),inactive: 0
24,CC1C(=O)OC2C(O)C34C5OC(=O)C3(OC3OC(=O)C(O)C34C(C(C)(C)C)C5O)C12O (stereo not drawn) [Ginkgolide C] (10 µM),inactive: 0
25,COc1ccc2c(c1)/C(=C/c1cnc[nH]1)C(=O)N2 (2.5 µM),inactive: 0
26,C[S+]([O-])/C=C/CCN=C=S (stereo not drawn) [Sulforaphene] (10 µM),inactive: 0
27,N#CC(C#N)=Cc1ccc([N+](=O)[O-])c(O)c1 (10 µM),inactive: 0
28,Cn1cc(C2=C(c3cn(C4CCN(Cc5ccccn5)CC4)c4ccccc34)C(=O)NC2=O)c2ccccc21 [Enzastaurin] (10 µM),inactive: 0
29,O=C(/C=C/c1ccccc1)OC[C@H]1O[C@@H](O[C@@H]2OC=C[C@H]3[C@H](O)[C@@H]4O[C@]4(CO)[C@@H]23)[C@H](O)[C@@H](O)[C@@H]1O [Picroside I] (10 µM),inactive: 0

# Reference: the supplement of paper PMC12823440, “Inhibitors supercharge kinase turnover through native proteolytic circuits” (Nature, 2025)
